Data as given in PubChem BioAssay AID504808 (Drosophila RNAi Screening Center, 2011)
Aim: 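Fly genes required to hold E2F transcription in check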 (primary screen). Cells: Drosophila S2 cells. Reagent: long dsRNA against Drosophila genes. Detection: 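Firefly luciferase driven by E2F sites, normalised to Renilla luciferase on the same minimal promoter, measured by plate reader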. Direction: E2F firefly: higher = more E2F reporter activity; Renilla normaliser: higher = more normaliser reporter signal. Hit rule: 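Called active if the normalised E2F reporter went up by over 50%; the cutoff is arbitrary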.
The deposit covers about 21,000 reagents; shown is a random part of those that have a named target and a result. In the full data, 18 (0.084%) were called active. 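Raw counts without plate normalisation, one of two replicates; the ratio scores behind the calls were not deposited.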 Not given: the amount of reagent, the time to read-out.

After knock-down of CG5561 [SID104180480], the record shows E2F firefly, rep 1 = 1.74e5; Renilla normaliser, rep 1 = 6372; inactive.
With knock-down of Kul (Kuzbanian-like) [SID104195196] the results were E2F firefly, rep 1 = 1.13e5; Renilla normaliser, rep 1 = 6625; inactive.
ps (pasilla) [SID104194941] gave E2F firefly, rep 1 = 1.38e5; Renilla normaliser, rep 1 = 6190; inactive.
For ps (pasilla) [SID104194943], the entry reads E2F firefly, rep 1 = 1.13e5; Renilla normaliser, rep 1 = 5052; inactive.
For ps (pasilla) [SID104194944], the values are E2F firefly, rep 1 = 82024; Renilla normaliser, rep 1 = 4261; inactive.
For ps (pasilla) [SID104196180], the entry reads E2F firefly, rep 1 = 1.47e5; Renilla normaliser, rep 1 = 6134; inactive.
For Bet5 (Blocked early in transport 5) [SID104194392], the entry reads E2F firefly, rep 1 = 1.24e5; Renilla normaliser, rep 1 = 5937; inactive.
Silencing of CHMP2B (Charged multivesicular body protein 2b) [SID104190228] gave: E2F firefly, rep 1 = 68635; Renilla normaliser, rep 1 = 3868; inactive.
Knock-down of Ten-a (Tenascin accessory) [SID104198716] gave: E2F firefly, rep 1 = 82861; Renilla normaliser, rep 1 = 2405; inactive.
Against Ten-a (Tenascin accessory) [SID104199288], the values are E2F firefly, rep 1 = 47816; Renilla normaliser, rep 1 = 3763; inactive.
For Ten-a (Tenascin accessory) [SID104199492], the entry reads E2F firefly, rep 1 = 1.36e5; Renilla normaliser, rep 1 = 6784; inactive.
With knock-down of Ten-a (Tenascin accessory) [SID104199585], the record shows E2F firefly, rep 1 = 1.30e5; Renilla normaliser, rep 1 = 6102; inactive.
Ten-a (Tenascin accessory) [SID104199656] gave E2F firefly, rep 1 = 1.22e5; Renilla normaliser, rep 1 = 6337; inactive.
Against Ten-a (Tenascin accessory) [SID104199657], the entry reads E2F firefly, rep 1 = 1.58e5; Renilla normaliser, rep 1 = 6318; inactive.
For Ten-a (Tenascin accessory) [SID104200082] the deposit lists E2F firefly, rep 1 = 1.30e5; Renilla normaliser, rep 1 = 6065; inactive.

Laid out differently: entries from further up.
| target gene | PubChem SID | E2F firefly, rep 1 | Renilla normaliser, rep 1 | Outcome |
| --- | --- | --- | --- | --- |
| Ten-a (Tenascin accessory) | SID104199585 | 1.30e5 | 6102 | inactive |
| Ten-a (Tenascin accessory) | SID104199656 | 1.22e5 | 6337 | inactive |
